Test results as given in patent US6984520B1, “Bioassay for thyroid stimulating antibodies” (University of Wales College of Medicine, priority 1997, dated 2006).
At least one compound was matched to its structure with a doubt left.

The chains behind the UniProt entries cited, without tags or fusion partners. Residues count along the entry.
UniProt P16473, 21-764: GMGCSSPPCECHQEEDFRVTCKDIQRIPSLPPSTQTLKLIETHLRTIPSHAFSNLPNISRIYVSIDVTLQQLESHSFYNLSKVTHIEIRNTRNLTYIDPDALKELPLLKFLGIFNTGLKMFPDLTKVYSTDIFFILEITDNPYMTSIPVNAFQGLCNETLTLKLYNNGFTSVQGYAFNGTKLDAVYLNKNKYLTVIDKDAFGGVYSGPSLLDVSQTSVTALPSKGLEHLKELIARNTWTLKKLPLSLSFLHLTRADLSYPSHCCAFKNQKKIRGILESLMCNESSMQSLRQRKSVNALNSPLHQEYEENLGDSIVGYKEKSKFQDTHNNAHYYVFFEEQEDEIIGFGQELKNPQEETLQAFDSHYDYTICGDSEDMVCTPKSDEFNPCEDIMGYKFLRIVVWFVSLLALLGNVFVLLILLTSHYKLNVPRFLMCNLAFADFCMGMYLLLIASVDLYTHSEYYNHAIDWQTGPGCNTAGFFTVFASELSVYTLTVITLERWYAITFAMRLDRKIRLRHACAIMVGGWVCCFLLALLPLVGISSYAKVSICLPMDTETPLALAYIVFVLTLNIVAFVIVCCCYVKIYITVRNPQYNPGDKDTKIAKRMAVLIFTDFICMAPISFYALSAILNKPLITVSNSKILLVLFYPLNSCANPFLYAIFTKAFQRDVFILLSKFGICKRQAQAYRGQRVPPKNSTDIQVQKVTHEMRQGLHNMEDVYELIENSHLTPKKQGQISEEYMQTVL

Biological target: T1, human TSH-R (Homo sapiens, UniProt P16473)
T1 construct: a pSVL vector containing the coding region of human TSH-R; expressed in transfected cells; host or cells: CHO-K1 clone JP09 (pSVL-hTSHR), further transfected with cAMP-luciferase to give lulu 1 cells
Assay: luminescent bioassay: light output of lulu 1 cells (JP09 CHO cells expressing human TSH-R, transfected with cAMP-luciferase)
Assay type: cell-based
Details: concentration as in row: TSH 1 mU/ml, TSAb (90/672) 10 mlU/ml, Forskolin 10^-5M
Procedure: Culture medium for the cells was RPMI; 10% foetal calf serum (FCS); 1% glutamine; 1% pyruvate; 2% penicillin/streptomycin (and 2.5 μg/ml puromycin, when amplifying cells for assay). 96 well plates were seeded with 5×10^4 cells prepared according to Example 1 and cultured overnight (approximately 16 hours) at 37° C. in a water-saturated incubator. They were then cultured for a second night in medium containing 10% charcoal stripped calf serum instead of FCS (available from Gibco). Basal light output was measured, in triplicate wells, in the presence of 100 μl of the medium containing 10% charcoal stripped serum. […] The final result was expressed as relative light units (RLU) obtained by the ratio of standard:basal or test:basal.
Following the incubation period, supernatants were removed from the wells and the cells are washed twice in phosphate buffered saline. Light output was measured using a commercially-available kit from the Promega Corporation, no. […]
The selected clones were cultured overnight in medium with 10% charcoal-stripped calf serum (Sigma) in place of FCS, followed by 4 hours' incubation with varying concentrations of bovine TSH. Light output was measured by luciferase reporter assay (Promega) in a Berthold luminometer. Results were calculated as the ratio of light output in the presence of TSH:light output in the absence of TSH and expressed as relative light units (RLUs). […]

C=C[C@@]1(C)CC(=O)[C@]2(O)[C@@]3(C)[C@@H](O)CCC(C)(C)[C@@H]3[C@H](O)[C@H](OC(C)=O)[C@@]2(C)O1 [Forskolin]
RLUs (mean luminometer readings (n=3) with background light emission subtracted): 1651 RLUs
